Drawing on article PMC5762833, this text covers binding for two molecules.

Protein sequences, listed by entry. Tags and fused reporters are not part of them. Lines headed by an entry give the natural chain unless they say otherwise; changes in a name come on top.
UniProt P24557: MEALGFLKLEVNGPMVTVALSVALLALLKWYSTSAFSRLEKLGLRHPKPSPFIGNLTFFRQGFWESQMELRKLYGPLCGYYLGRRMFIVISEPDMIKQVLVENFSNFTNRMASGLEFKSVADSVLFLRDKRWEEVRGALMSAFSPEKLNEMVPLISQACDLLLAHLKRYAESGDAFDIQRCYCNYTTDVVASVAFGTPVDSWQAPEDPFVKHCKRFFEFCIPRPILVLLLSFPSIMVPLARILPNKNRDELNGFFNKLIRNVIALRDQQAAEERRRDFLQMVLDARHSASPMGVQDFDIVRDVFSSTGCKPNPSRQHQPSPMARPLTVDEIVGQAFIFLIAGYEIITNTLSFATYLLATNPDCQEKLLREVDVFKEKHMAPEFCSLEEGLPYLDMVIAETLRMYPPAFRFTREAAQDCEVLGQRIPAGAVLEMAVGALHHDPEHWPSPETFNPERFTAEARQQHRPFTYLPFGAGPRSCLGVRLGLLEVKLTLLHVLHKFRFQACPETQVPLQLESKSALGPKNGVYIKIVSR

The assay has as its target Human thromboxane synthase (TBXAS1) (human) (UniProt P24557). The assay can be described thus: affinity purification with mass spectrometry; direct molecular fishing: TBXAS1 covalently immobilised on CNBr-Sepharose 4B in a 200 µL microcolumn; human liver tissue lysate passed in HBS-EP+ (10 mM HEPES pH 7.4, 150 mM NaCl, 3 mM EDTA, 0.05% Tween 20) at 15°C; elution with 4% HCOOH (pH 2.5); LC-MS/MS; control column of empty inactivated sorbent; only the target purified.

Results are given in words; binding and its absence hold for the method and conditions named. In cells and extracts the contact can be indirect. A yes stands for co-enrichment or nearness to the bait. Other partners may have been found.

B1: Ankyrin repeat and MYND domain-containing protein 1 (protein, UniProt Q9P2S6 1-941)
chain: MYQGEFGLNMKLGYGKFSWPTGESYHGQFYRDHCHGLGTYMWPDGSSFTGTFYLSHREGYGTMYMKTRLFQGLYKADQRFGPGVETYPDGSQDVGLWFREQLIKLCTQIPSGFSLLRYPEFSSFITHSPARISLSEEEKTEWGLQEGQDPFFYDYKRFLLNDNLTLPPEMYVYSTNSDHLPMTSSFRKELDARIFLNEIPPFVEDGEPWFIINETPLLVKIQKQTYKFRNKPAHTSWNMGAILEGKRSGFAPCGPKEQLSMEMILKAEEGNHEWICRILKDNFASADVADAKGYTVLAAAATHCHNDIVNLLLDCGADVNKCSDEGLTALSMCFLLHYPAQSFKPNVAERTIPEPQEPPKFPVVPILSSSFMDTNLESLYYEVNVPSQGSYELRPPPAPLLLPRVSGSHEGGHFQDTGQCGGSIDHRSSSLKGDSPLVKGSLGHVESGLEDVLGNTDRGSLCSAETKFESNVCVCDFSIELSQAMLERSAQSHSLLKMASPSPCTSSFDKGTMRRMALSMIERRKRWRTIKLLLRRGADPNLCCVPMQVLFLAVKAGDVDGVRLLLEHGARTDICFPPQLSTLTPLHIAAALPGEEGVQIVELLLHAITDVDAKASDEDDTYKPGKLDLLPSSLKLSNEPGPPQAYYSTDTALPEEGGRTALHMACEREDDNKCARDIVRLLLSHGANPNLLWSGHSPLSLSIASGNELVVKELLTQGADPNLPLTKGLGSALCVACDLTYEHQRNMDSKLALIDRLISHGADILKPVMLRQGEKEAVGTAVDYGYFRFFQDRRIARCPFHTLMPAERETFLARKRLLEYMGLQLRQAVFAKESQWDPTWLYLCKRAELIPSHRMKKKGPSLPRGLDVKEQGQIPFFKFCYQCGRSIGVRLLPCPRCYGILTCSKYCKTKAWTEFHKKDCGDLVAIVTQLEQVSRRREEFQ
Turning to B1, the binding result was “binds”.

B2: BBSome-interacting protein 1 (protein, UniProt A8MTZ0 1-92)
chain: MLKAAAKRPELSGKNTISNNSDMAEVKSMFREVLPKQGPLFVEDIMTMVLCKPKLLPLKSLTLEKLEKMHQAAQNTIRQQEMAEKDQRQITH
As to B2, the binding entry is given as “binds”.
